In the supplement of paper PMC10849652:
The other results are listed elsewhere or left out.

Amino acid sequences for entries named in this document (tags omitted). A change or cut given only in a name is not applied to a line headed by its entry.
UniProt Q9UJZ1: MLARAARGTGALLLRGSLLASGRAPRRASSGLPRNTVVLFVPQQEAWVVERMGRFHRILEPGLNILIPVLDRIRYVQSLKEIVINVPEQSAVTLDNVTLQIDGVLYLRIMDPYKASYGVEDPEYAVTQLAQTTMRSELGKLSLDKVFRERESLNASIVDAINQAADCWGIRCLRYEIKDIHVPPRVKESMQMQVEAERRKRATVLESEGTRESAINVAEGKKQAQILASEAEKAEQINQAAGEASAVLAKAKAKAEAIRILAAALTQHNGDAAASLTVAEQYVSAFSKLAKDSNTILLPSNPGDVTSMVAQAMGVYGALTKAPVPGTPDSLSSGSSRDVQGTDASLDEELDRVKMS
UniProt O75716, whole entry, looked up: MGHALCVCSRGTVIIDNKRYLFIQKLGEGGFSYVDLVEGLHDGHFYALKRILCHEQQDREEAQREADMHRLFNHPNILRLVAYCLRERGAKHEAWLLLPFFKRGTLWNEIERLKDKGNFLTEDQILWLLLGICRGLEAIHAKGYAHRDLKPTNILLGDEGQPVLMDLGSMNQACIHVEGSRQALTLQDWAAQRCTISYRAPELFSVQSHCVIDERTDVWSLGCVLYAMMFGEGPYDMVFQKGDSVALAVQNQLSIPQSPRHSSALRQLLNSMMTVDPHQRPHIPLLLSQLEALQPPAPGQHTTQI
UniProt O15400: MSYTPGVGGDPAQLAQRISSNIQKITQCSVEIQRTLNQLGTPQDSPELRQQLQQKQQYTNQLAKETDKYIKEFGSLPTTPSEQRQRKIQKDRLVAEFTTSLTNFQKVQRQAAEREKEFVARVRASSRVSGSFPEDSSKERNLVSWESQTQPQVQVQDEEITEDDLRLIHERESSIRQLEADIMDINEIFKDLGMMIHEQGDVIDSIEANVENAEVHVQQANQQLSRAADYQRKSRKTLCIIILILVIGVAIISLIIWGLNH
UniProt O15260: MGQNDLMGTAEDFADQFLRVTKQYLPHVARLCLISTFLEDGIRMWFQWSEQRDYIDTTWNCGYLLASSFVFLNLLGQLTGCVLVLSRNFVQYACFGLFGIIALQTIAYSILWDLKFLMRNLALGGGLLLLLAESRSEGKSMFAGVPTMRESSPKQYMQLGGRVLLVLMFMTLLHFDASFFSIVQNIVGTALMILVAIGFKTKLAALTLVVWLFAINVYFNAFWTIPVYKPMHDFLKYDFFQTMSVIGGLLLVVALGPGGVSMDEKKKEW
UniProt P53597: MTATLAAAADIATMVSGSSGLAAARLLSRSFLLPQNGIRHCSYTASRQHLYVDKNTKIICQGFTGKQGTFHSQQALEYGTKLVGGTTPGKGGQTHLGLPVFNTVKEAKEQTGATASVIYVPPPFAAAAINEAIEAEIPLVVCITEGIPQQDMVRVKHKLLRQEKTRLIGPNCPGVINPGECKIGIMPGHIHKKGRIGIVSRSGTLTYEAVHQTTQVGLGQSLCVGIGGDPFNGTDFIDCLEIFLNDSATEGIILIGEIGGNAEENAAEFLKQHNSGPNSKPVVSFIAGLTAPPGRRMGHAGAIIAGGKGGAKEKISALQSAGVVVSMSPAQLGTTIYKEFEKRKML
UniProt O60506: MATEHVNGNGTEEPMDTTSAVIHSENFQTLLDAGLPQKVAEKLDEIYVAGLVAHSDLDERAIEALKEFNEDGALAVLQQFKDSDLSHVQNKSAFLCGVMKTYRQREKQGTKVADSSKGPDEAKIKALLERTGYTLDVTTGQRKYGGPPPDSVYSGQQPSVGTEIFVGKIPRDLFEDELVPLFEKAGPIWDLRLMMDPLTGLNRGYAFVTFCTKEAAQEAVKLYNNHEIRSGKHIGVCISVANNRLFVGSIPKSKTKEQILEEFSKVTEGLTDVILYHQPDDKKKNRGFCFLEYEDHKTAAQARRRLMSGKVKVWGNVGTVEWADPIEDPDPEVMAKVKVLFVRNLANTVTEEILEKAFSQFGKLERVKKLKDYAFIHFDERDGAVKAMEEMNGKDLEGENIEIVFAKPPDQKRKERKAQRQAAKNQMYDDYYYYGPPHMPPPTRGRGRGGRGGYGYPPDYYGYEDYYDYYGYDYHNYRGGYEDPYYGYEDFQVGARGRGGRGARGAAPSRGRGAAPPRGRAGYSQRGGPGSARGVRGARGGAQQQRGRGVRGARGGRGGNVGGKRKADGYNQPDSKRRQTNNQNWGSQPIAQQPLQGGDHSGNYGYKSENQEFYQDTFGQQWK
UniProt O00186: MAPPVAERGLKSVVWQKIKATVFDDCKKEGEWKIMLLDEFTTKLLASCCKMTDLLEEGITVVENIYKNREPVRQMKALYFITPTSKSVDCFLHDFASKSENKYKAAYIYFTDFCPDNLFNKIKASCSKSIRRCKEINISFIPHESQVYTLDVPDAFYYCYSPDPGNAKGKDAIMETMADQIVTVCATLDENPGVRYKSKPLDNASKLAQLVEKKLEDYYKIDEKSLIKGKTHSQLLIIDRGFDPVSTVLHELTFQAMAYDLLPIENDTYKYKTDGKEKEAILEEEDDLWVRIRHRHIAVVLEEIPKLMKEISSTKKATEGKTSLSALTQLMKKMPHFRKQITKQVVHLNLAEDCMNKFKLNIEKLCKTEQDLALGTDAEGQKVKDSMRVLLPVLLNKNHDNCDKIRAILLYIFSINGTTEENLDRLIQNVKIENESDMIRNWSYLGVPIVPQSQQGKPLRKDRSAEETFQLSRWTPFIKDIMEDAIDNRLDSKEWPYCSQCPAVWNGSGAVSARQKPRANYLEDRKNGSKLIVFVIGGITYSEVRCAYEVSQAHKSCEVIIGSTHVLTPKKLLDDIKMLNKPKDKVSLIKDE
UniProt O15056: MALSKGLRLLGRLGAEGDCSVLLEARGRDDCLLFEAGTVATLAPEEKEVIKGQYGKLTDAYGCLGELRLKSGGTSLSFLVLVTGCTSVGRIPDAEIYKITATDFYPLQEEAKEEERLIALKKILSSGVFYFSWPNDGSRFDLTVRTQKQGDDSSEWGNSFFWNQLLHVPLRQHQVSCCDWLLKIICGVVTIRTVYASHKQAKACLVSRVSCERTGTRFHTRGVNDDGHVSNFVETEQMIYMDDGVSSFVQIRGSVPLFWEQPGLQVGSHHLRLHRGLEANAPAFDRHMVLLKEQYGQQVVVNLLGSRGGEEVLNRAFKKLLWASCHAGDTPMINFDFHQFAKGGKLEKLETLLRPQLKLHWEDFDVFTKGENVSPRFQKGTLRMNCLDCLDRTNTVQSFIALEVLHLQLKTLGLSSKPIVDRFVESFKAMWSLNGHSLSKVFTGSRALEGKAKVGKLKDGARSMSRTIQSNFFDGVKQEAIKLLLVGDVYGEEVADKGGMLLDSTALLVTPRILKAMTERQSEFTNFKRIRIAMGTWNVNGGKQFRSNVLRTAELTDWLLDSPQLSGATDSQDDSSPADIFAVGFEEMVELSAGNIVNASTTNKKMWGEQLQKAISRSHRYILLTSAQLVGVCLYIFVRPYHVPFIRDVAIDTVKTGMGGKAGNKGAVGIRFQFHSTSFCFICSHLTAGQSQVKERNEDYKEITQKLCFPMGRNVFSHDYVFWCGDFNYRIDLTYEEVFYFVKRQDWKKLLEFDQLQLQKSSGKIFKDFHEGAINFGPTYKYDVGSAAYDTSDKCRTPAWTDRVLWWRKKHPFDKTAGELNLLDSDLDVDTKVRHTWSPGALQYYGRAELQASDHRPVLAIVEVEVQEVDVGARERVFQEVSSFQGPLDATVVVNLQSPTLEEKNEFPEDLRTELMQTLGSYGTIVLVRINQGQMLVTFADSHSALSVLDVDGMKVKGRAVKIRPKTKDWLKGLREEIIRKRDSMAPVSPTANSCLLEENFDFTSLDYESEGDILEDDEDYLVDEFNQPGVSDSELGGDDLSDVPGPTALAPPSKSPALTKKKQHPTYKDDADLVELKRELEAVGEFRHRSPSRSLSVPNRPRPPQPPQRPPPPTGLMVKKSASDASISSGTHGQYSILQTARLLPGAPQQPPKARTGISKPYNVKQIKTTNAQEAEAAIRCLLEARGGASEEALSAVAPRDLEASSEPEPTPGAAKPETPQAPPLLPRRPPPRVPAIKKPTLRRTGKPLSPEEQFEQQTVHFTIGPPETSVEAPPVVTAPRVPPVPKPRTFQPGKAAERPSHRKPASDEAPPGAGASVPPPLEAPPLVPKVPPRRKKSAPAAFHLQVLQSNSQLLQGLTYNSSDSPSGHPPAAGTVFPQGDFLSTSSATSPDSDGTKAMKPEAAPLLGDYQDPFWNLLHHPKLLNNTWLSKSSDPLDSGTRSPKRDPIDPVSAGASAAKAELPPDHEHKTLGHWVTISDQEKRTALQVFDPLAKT
UniProt Q13188: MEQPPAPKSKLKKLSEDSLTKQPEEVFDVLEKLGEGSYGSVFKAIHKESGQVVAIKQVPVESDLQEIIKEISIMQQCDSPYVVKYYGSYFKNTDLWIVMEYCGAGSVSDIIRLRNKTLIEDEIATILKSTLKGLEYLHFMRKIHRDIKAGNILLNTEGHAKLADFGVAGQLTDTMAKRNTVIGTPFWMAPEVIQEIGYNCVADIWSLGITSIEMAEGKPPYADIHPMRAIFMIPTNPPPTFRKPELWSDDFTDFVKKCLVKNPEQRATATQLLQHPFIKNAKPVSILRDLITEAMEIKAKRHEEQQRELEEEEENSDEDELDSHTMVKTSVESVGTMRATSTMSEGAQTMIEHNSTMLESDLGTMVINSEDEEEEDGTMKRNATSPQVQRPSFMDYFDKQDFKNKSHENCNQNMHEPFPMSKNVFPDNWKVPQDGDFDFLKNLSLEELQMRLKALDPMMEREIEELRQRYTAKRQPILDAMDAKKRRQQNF
UniProt Q15544, whole entry, looked up: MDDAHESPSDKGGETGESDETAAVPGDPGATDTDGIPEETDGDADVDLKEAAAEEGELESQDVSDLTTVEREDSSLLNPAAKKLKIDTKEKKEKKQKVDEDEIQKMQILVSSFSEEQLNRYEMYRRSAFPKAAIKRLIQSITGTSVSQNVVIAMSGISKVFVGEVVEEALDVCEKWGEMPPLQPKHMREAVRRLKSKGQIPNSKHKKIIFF

Assays:
Assay in all cases: log2 fold change, soluble protein after heating vs DMSO (PISA); higher = thermal stabilisation; K562 lysate, 10 uM; active = over 0.2 and 3.5 SD of the protein, either way, in both replicates (recomputed)
[1] = compound: CCCS(=O)(=O)Nc1ccc(F)c(C(=O)c2c[nH]c3ncc(-c4ccc(Cl)cc4)cc23)c1F [vemurafenib]
Procedure, shortened: (§1)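 Log-two fold change in thermal stability relative to solvent controls is reported from duplicates. For each sample, crude K562 extract from dounce-homogenised pellets in PBS pH 7.4 with 1 mM MgCl2, at 1 mg/mL protein, was treated with 10 μM compound for 30 min. Aliquots heated for 3 min across 48°C-58°C were pooled, brought to 0.5% NP-40 at 4°C and cleared at 21,000xg for 90 min. The supernatant was quantified by TMTpro 16plex LC-MS/MS with channel sums equalised.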

[2] = compound: CCCS(=O)(=O)Nc1ccc(F)c(C(=O)c2c[nH]c3ncc(Cl)cc23)c1F
Procedure, shortened: as §1

[3] = compound: CCN(CCCOc1ccc2c(Nc3cc(CC(=O)Nc4cccc(F)c4)[nH]n3)ncnc2c1)CCOP(=O)(O)O [barasertib]
Procedure, shortened: as §1

[4] = compound: CC[C@@H]1C(=O)N(C)c2cnc(Nc3ccc(C(=O)NC4CCN(C)CC4)cc3OC)nc2N1C1CCCC1
Procedure, shortened: as §1

[5] = compound: CC[C@@H]1C(=O)N(C)c2cnc(Nc3ccc(C(=O)N[C@H]4CC[C@H](N5CCN(CC6CC6)CC5)CC4)cc3OC)nc2N1C(C)C [volasertib]
Procedure, shortened: as §1

[6] = compound: CCn1c(C(=O)N(C2CC2)C2CC2)cc2c3c(ncn3C)c(Nc3cc(C)n(C)n3)nc21
Procedure, shortened: as §1

[7] = compound: CCn1cc(-c2ccnc3[nH]c(-c4cccc(CN(C)C)c4)cc23)c(-c2ccc(NC(=O)N(C)C)cc2)n1
Procedure, shortened: as §1

[8] = compound: CN1CCC(CNc2ccc3ncc(-c4cccc(OC(F)(F)F)c4)n3n2)CC1
Procedure, shortened: as §1

[9] = compound: CN1CCN(CCOc2cc(OC3CCOCC3)c3c(Nc4c(Cl)ccc5c4OCO5)ncnc3c2)CC1 [saracatinib]
Procedure, shortened: as §1

[10] = compound: CN1CCN(c2nc(C3=C(c4c[nH]c5ccccc45)C(=O)NC3=O)c3ccccc3n2)CC1 [sotrastaurin]
Procedure, shortened: as §1

[11] = compound: CN1CC[C@H](c2c(O)cc(O)c3c(=O)cc(-c4ccccc4Cl)oc23)[C@H](O)C1 [alvocidib]
Procedure, shortened: as §1

[12] = compound: CN1CCc2c(c3ccccc3n2Cc2ccc(C(=O)NO)cc2)C1 [Tubastatin A]
Procedure, shortened: as §1

[13] = compound: CNC(=O)C1=CC=CC=C1NC2=NC(=NC=C2Cl)NC3=C(C=C(C=C3)N4CCOCC4)OC
Procedure, shortened: as §1

[14] = compound: CNC(=O)c1ccc(Nc2ncc(C(F)(F)F)c(NCc3nccnc3N(C)S(C)(=O)=O)n2)cc1 [defactinib]
Procedure, shortened: as §1

[15] = compound: CNc1nc(-c2ccc3c(N)n[nH]c3c2)cc(N2C[C@@H](C(=O)NC3CCCCC3)CC[C@H]2C)n1
Procedure, shortened: as §1

[16] = compound: COC(=O)N[C@@H](C)CNc1nccc(-c2cn(C(C)C)nc2-c2cc(Cl)cc(NS(C)(=O)=O)c2F)n1 [encorafenib]
Procedure, shortened: as §1

[17] = compound: COC(=O)[C@H](CCSC)NC(=O)C1=C(C=C(C=C1)NC[C@H](CS)N)C2=CC=CC=C2
Procedure, shortened: as §1

[18] = compound: COc1cc(Nc2ncc3c(n2)-c2ccc(Cl)cc2C(c2c(F)cccc2OC)=NC3)ccc1C(=O)O [alisertib]
Procedure, shortened: as §1

[19] = compound: COc1cc2nc(-c3cc(F)ccc3O)nc(N[C@@H]3CNC[C@H]3C(C)(C)O)c2cc1OC
Procedure, shortened: as §1

[20] = compound: COc1cc2ncnc(Nc3ccc(F)c(Cl)c3)c2cc1OCCCN1CCOCC1 [gefitinib]
Procedure, shortened: as §1

| Target | log2 fold change [1] | log2 fold change [2] | log2 fold change [3] | log2 fold change [4] | log2 fold change [5] | log2 fold change [6] | log2 fold change [7] | log2 fold change [8] | log2 fold change [9] | log2 fold change [10] | log2 fold change [11] | log2 fold change [12] | log2 fold change [13] | log2 fold change [14] | log2 fold change [15] | log2 fold change [16] | log2 fold change [17] | log2 fold change [18] | log2 fold change [19] | log2 fold change [20] |
| --- | --- | --- | --- | --- | --- | --- | --- | --- | --- | --- | --- | --- | --- | --- | --- | --- | --- | --- | --- | --- |
| STOML2 (UniProt Q9UJZ1) | inactive: 0.026 | inactive: 0.009 | inactive: 0.115 | inactive: 0.043 | inactive: 0.033 | inactive: -0.015 | inactive: 0.111 | inactive: -0.047 | inactive: -0.01 | inactive: -0.002 | inactive: -0.017 | inactive: 0.095 | inactive: -0.009 | inactive: 0.017 | inactive: 0.022 | inactive: -0.007 | inactive: -0.055 | inactive: -0.004 | inactive: 0.052 | inactive: 0.08 |
| STK16 (UniProt O75716) | inactive: 0.137 | inactive: -0.103 |  | inactive: 0.037 | inactive: 0.215 | inactive: 0.654 |  |  | inactive: 0.033 | inactive: 0.061 |  | inactive: -0.049 | inactive: 0.427 | inactive: 0.671 | inactive: -0.015 | inactive: -0.861 | inactive: -0.817 |  | inactive: 0.254 |  |
| STX7 (UniProt O15400) | inactive: 0.007 | inactive: -0.006 | inactive: 0.015 | inactive: 0.033 | inactive: 0.026 | inactive: -0.038 | inactive: -0.042 | inactive: 0.046 | inactive: -0.003 | inactive: 0.014 | inactive: -0.014 | inactive: 0.053 | inactive: 0.005 | inactive: -0.008 | inactive: 0.003 | inactive: 0.008 | inactive: -0.037 | inactive: -0.032 | inactive: 0.01 | inactive: -0.009 |
| SURF4 (UniProt O15260) | inactive: -0.01 | inactive: -0.02 | inactive: 0.027 | inactive: 0.038 | inactive: 0.031 | inactive: 0.021 | inactive: -0.184 | inactive: 0.079 | inactive: 0.044 | inactive: 0.02 | inactive: -0.089 | inactive: -0.002 | inactive: 0.004 | inactive: 0.028 | inactive: -0.055 | inactive: 0.07 | inactive: -0.03 | inactive: -0.026 | inactive: -0.082 | inactive: 0.039 |
| SUCLG1 (UniProt P53597) | inactive: 0.012 | inactive: 0.001 | inactive: 0.019 | inactive: -0.056 | inactive: -0.047 | inactive: 0.034 | inactive: 0.03 | inactive: -0.018 | inactive: -0.044 | inactive: -0.018 | inactive: 0.051 | inactive: -0.061 | inactive: -0.002 | inactive: 0.001 | inactive: 0.008 | inactive: -0.05 | inactive: 0.108 | inactive: 0.038 | inactive: 0 | inactive: -0.031 |
| SYNCRIP (UniProt O60506) | inactive: -0.01 | inactive: 0.017 | inactive: -0.008 | inactive: -0.02 | inactive: 0.007 | inactive: 0.004 | inactive: 0.026 | inactive: -0.025 | inactive: 0.004 | inactive: 0 | inactive: 0.036 | inactive: -0.027 | inactive: 0.007 | inactive: 0.01 | inactive: 0.027 | inactive: -0.002 | inactive: 0.042 | inactive: 0.022 | inactive: -0.002 | inactive: 0.014 |
| STXBP3 (UniProt O00186) | inactive: 0.03 | inactive: 0 | inactive: 0.004 | inactive: -0.005 | inactive: -0.046 | inactive: 0.017 | inactive: 0.128 | inactive: -0.065 | inactive: 0.016 | inactive: -0.016 | inactive: -0.024 | inactive: -0.07 | inactive: 0.027 | inactive: 0.018 | inactive: 0.029 | inactive: -0.008 | inactive: 0.005 | inactive: -0.029 | inactive: 0.011 | inactive: -0.023 |
| SYNJ2 (UniProt O15056) | inactive: 0.008 | inactive: 0.001 | inactive: 0.046 | inactive: -0.019 | inactive: -0.052 | inactive: 0.003 | inactive: 0.032 | inactive: -0.054 | inactive: 0.02 | inactive: 0.016 | inactive: -0.015 | inactive: 0.019 | inactive: -0.007 | inactive: -0.055 | inactive: 0.025 | inactive: 0 | inactive: 0.241 | inactive: -0.056 | inactive: -0.016 | inactive: -0.021 |
| STK3 isoform 2 (UniProt Q13188) | inactive: 0.046 | inactive: 0.04 | inactive: 0.032 |  | inactive: -0.047 | inactive: -0.012 | inactive: -0.017 | inactive: 0.216 | inactive: -0.01 | inactive: 0.142 |  | inactive: -0.075 |  | inactive: 0.205 | inactive: 0.015 | inactive: -0.046 | inactive: -0.068 |  | inactive: 0.269 | inactive: 0.002 |
| SUPT5H isoform 2 (UniProt O00267) | inactive: 0.211 | inactive: 0.107 | inactive: 0.024 |  | inactive: 0.07 |  |  |  | inactive: 0.004 | inactive: 0.08 |  |  |  | inactive: -0.08 | inactive: -0.065 |  |  | inactive: -0.06 | inactive: -0.021 | inactive: -0.102 |
| TAF11 (UniProt Q15544) | inactive: -0.055 | inactive: 0.166 |  | inactive: 0.14 | inactive: 0.037 | inactive: 0.086 | inactive: -0.028 | inactive: 0.086 | inactive: -0.021 | inactive: 0.026 | inactive: -0.015 | inactive: 0.014 |  | inactive: -0.151 | inactive: 0.137 | inactive: -0.155 | active: 0.398 | inactive: -0.053 | inactive: 0.048 | inactive: 0.064 |

A stretch from further up, as a working copy:

| Target | log2 fold change [1] | log2 fold change [2] | log2 fold change [3] | log2 fold change [4] | log2 fold change [5] | log2 fold change [6] | log2 fold change [7] | log2 fold change [8] | log2 fold change [9] | log2 fold change [10] | log2 fold change [11] | log2 fold change [12] | log2 fold change [13] | log2 fold change [14] | log2 fold change [15] | log2 fold change [16] | log2 fold change [17] | log2 fold change [18] | log2 fold change [19] | log2 fold change [20] |
| --- | --- | --- | --- | --- | --- | --- | --- | --- | --- | --- | --- | --- | --- | --- | --- | --- | --- | --- | --- | --- |
| STXBP3 (UniProt O00186) | inactive: 0.03 | inactive: 0 | inactive: 0.004 | inactive: -0.005 | inactive: -0.046 | inactive: 0.017 | inactive: 0.128 | inactive: -0.065 | inactive: 0.016 | inactive: -0.016 | inactive: -0.024 | inactive: -0.07 | inactive: 0.027 | inactive: 0.018 | inactive: 0.029 | inactive: -0.008 | inactive: 0.005 | inactive: -0.029 | inactive: 0.011 | inactive: -0.023 |
| SYNJ2 (UniProt O15056) | inactive: 0.008 | inactive: 0.001 | inactive: 0.046 | inactive: -0.019 | inactive: -0.052 | inactive: 0.003 | inactive: 0.032 | inactive: -0.054 | inactive: 0.02 | inactive: 0.016 | inactive: -0.015 | inactive: 0.019 | inactive: -0.007 | inactive: -0.055 | inactive: 0.025 | inactive: 0 | inactive: 0.241 | inactive: -0.056 | inactive: -0.016 | inactive: -0.021 |
